Measured values published in PubChem BioAssay AID270 (DTP/NCI, 2004).
The list does not hold the whole screen: it gathers tests that were run many times, whatever their T/C, doses with no T/C, and many T/C values between a quarter and a half above the control. Other doses and runs of a compound stand elsewhere. T/C gives the treated animals as a percentage of the vehicle group. Some T/C values are followed by the survivors on the day toxicity was checked, most often the fifth; where none is given, no animal had died by that day. Schedule codes are those of the source, taken here to give the interval after Q, in days (D) or hours (H), and the number of doses after X. Some entries give survivors of the animals treated and no T/C: the source files T/C as zero there, which appears to mark a toxic dose or a test without result, not a measured value. Some doses without a T/C left all or most animals alive at the check, yet need not have been tolerated: survival well below the control is almost never listed, so the zero probably covers shortened survival too. Survivors were counted at the toxicity check, usually on the fifth day, unless a day is given; later deaths do not show. Some entries hold several experiments; the results are listed from low to high. Some molecules as drawn cover several salts, stereoisomers or complexes of the source; a dose is that of the sample tested. Where survival is the endpoint, this PubChem deposit counts one and a half times the control or more as active, and values a quarter to a half above the control carry no call in these data; other NCI protocols may use other cut-offs.

Tested on: BDF1 mice, s.c. Lewis lung carcinoma, T/C %
Assay: NCI In Vivo Anticancer Drug Screen. Data for tumor model Lewis Lung Carcinoma (subcutaneous) in B6D2F1 (BDF1) mice
Method in brief: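 Tumor-bearing mice were treated with test compound, and either survival or tumor size was recorded. Values are the treated-group measurement divided by that of the vehicle-treated control group.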

[1] = T/C endpoint: median survival time, dose: 0.09 mg/kg/injection, schedule: Q01DX009 (ip), vehicle: DMSO, higher T/C = longer survival
[2] = T/C endpoint: median survival time, dose: 0.18 mg/kg/injection, schedule: Q01DX009 (ip), vehicle: DMSO, higher T/C = longer survival
[3] = T/C endpoint: median survival time, dose: 12.5 mg/kg/injection, schedule: Q01DX009 (ip), vehicle: saline with Tween-80, higher T/C = longer survival
[4] = T/C endpoint: median survival time, dose: 25.0 mg/kg/injection, schedule: Q01DX009 (ip), vehicle: saline with Tween-80, higher T/C = longer survival
[5] = T/C endpoint: median survival time, dose: 50.0 mg/kg/injection, schedule: Q01DX009 (ip), vehicle: saline with Tween-80, higher T/C = longer survival
[6] = T/C endpoint: median survival time, dose: 100.0 mg/kg/injection, schedule: Q01DX009 (ip), vehicle: saline with Tween-80, higher T/C = longer survival
[7] = T/C endpoint: median survival time, dose: 400.0 mg/kg/injection, schedule: Q01DX004 (ip), vehicle: saline, higher T/C = longer survival
[8] = T/C endpoint: median survival time, dose: 1600.0 mg/kg/injection, schedule: Q01DX004 (ip), vehicle: saline, higher T/C = longer survival

Question: What does the source list for CC[CH2][Pb]([Cl])([CH2]CC)[CH2]CC?
Answer: T/C [1]: 143 % of control; survivor count [1]: 0 of 10; T/C [2]: 148 % of control; survivor count [2]: 0 of 10; survivor count (T/C endpoint: median survival time, dose: 0.37 mg/kg/injection, schedule: Q01DX009 (ip), vehicle: DMSO, higher T/C = longer survival): 0 of 10; survivor count (T/C endpoint: median survival time, dose: 0.75 mg/kg/injection, schedule: Q01DX009 (ip), vehicle: DMSO, higher T/C = longer survival): 0 of 10; survivor count (T/C endpoint: median survival time, dose: 1.5 mg/kg/injection, schedule: Q01DX009 (ip), vehicle: DMSO, higher T/C = longer survival): 0 of 10

Question: For CCN(CC)C(=S)S.[Te], which survivor count (T/C endpoint: mean tumor weight, dose: 400.0 mg/kg/injection, schedule: Q01DX011 (ip), vehicle: carboxymethylcellulose (CMC), higher T/C = larger tumour) is on record?
Answer: Its survivor count is 0 of 6.

Question: How did the T/C [3] turn out when Cc1cc(NC(=O)N(CCCl)N=O)c(C)cc1NC(=O)c1ccccc1 was run?
Answer: Its T/C is 128 % of control.

Question: What about the T/C [4] of the same compound?
Answer: The T/C was 127 % of control [9 of 10 alive].

Question: And the T/C [5]?
Answer: The T/C was 125 % of control.

Question: What about the survivor count [6] of the same compound?
Answer: The survivor count was 10 of 10.

Question: What about the survivor count (T/C endpoint: median survival time, dose: 200.0 mg/kg/injection, schedule: Q01DX009 (ip), vehicle: saline with Tween-80, higher T/C = longer survival) of the same compound?
Answer: The survivor count was 10 of 10.

Question: For O=NN(CCCl)C(=O)Nc1ncc([N+](=O)[O-])s1, which survivor count (T/C endpoint: median survival time, dose: 230.0 mg/kg/injection, schedule: Q01DX001 (ip), vehicle: other, higher T/C = longer survival) is on record?
Answer: Its survivor count is 1 of 8 on day 11.

Question: Which survivor count (T/C endpoint: mean tumor weight, dose: 40.0 mg/kg/injection, schedule: Q01DX011 (ip), vehicle: other, higher T/C = larger tumour) does the source give for CN(C)c1ccc(/C=C\c2ccnc3ccccc23)cc1 here?
Answer: The survivor count was 1 of 6.

Question: What about the survivor count (T/C endpoint: mean tumor weight, dose: 80.0 mg/kg/injection, schedule: Q01DX011 (ip), vehicle: other, higher T/C = larger tumour) of the same compound?
Answer: Its survivor count is 0 of 6.

Question: And the survivor count (T/C endpoint: mean tumor weight, dose: 150.0 mg/kg/injection, schedule: Q01DX011 (ip), vehicle: other, higher T/C = larger tumour)?
Answer: The survivor count was 0 of 6.

Question: What about the survivor count (T/C endpoint: mean tumor weight, dose: 222.0 mg/kg/injection, schedule: Q01DX011 (ip), vehicle: other, higher T/C = larger tumour) of the same compound?
Answer: Its survivor count is 0 of 6.

Question: And the survivor count (T/C endpoint: mean tumor weight, dose: 333.0 mg/kg/injection, schedule: Q01DX011 (ip), vehicle: other, higher T/C = larger tumour)?
Answer: Its survivor count is 0 of 6.

Question: What about the survivor count (T/C endpoint: mean tumor weight, dose: 500.0 mg/kg/injection, schedule: Q01DX011 (ip), vehicle: other, higher T/C = larger tumour) of the same compound?
Answer: Its survivor count is 0 of 6.

Question: Which survivor count (T/C endpoint: mean tumor weight, dose: 60.0 mg/kg/injection, schedule: Q01DX011 (sc), vehicle: steroid suspending solution, higher T/C = larger tumour) does the source give for C[C@H]1C[C@H]2[C@@H]3CC[C@](O)(C(=O)CO)[C@@]3(C)C[C@H](O)[C@]2(F)[C@@]2(C)C=CC(=O)C=C12 here?
Answer: The survivor count was 3 of 6.

Question: How did the survivor count (T/C endpoint: mean tumor weight, dose: 300.0 mg/kg/injection, schedule: Q01DX011 (ip), vehicle: carboxymethylcellulose (CMC), higher T/C = larger tumour) turn out when SCc1ccccn1 was run?
Answer: Its survivor count is 2 of 6.

Question: Which results are given for O=CC(NC(=O)N(CCCl)N=O)C(O)C(O)C(O)CO (configuration not stated)?
Answer: T/C (T/C endpoint: median survival time, dose: 10.0 mg/kg/injection, schedule: Q01DX001 (ip), vehicle: Klucel (hydroxypropylcellulose) (HPC), higher T/C = longer survival): 130 % of control; survivor count (T/C endpoint: median survival time, dose: 20.0 mg/kg/injection, schedule: Q01DX001 (ip), vehicle: Klucel (hydroxypropylcellulose) (HPC), higher T/C = longer survival): 10 of 10; survivor count (T/C endpoint: median survival time, dose: 27.0 mg/kg/injection, schedule: Q04DX003 (ip), vehicle: saline, higher T/C = longer survival): 10 of 10; survivor count (T/C endpoint: median survival time, dose: 40.0 mg/kg/injection, schedule: Q01DX001 (ip), vehicle: Klucel (hydroxypropylcellulose) (HPC), higher T/C = longer survival): 10 of 10; survivor count (T/C endpoint: median survival time, dose: 80.0 mg/kg/injection, schedule: Q01DX001 (ip), vehicle: Klucel (hydroxypropylcellulose) (HPC), higher T/C = longer survival): 5 of 10, 9 of 10, 10 of 10; survivor count (T/C endpoint: median survival time, dose: 160.0 mg/kg/injection, schedule: Q01DX001 (ip), vehicle: Klucel (hydroxypropylcellulose) (HPC), higher T/C = longer survival): 0 of 10, 1 of 10, 2 of 10

Question: What does the source list for O=NN(CCCl)C(=O)Nc1ccc2c(c1)OCO2?
Answer: survivor count [3]: 10 of 10; survivor count [4]: 10 of 10; survivor count [5]: 10 of 10; survivor count [6]: 10 of 10

Question: Which results are given for CSCS(=O)C[C@H](CO)NC(=O)/C=C/c1c(C)[nH]c(=O)[nH]c1=O (some centres not stated)?
Answer: survivor count (T/C endpoint: median survival time, dose: 0.6 mg/kg/injection, schedule: Q01DX009 (ip), vehicle: water, higher T/C = longer survival): 10 of 10; survivor count (T/C endpoint: median survival time, dose: 1.2 mg/kg/injection, schedule: Q01DX009 (ip), vehicle: water, higher T/C = longer survival): 1 of 10

Question: What does the source list for CCC(c1ccc(OC(=O)Cc2ccc(N(CCCl)CCCl)cc2)cc1)C(CC)c1ccc(OC(=O)Cc2ccc(N(CCCl)CCCl)cc2)cc1 (configuration not stated)?
Answer: survivor count (T/C endpoint: median survival time, dose: 200.0 mg/kg/injection, schedule: Q02DX009 (ip), vehicle: saline with Tween-80, higher T/C = longer survival): 10 of 10; survivor count (T/C endpoint: median survival time, dose: 400.0 mg/kg/injection, schedule: Q02DX009 (ip), vehicle: saline with Tween-80, higher T/C = longer survival): 10 of 10

Question: With S=C([S][Sn]([c]1ccccc1)([c]1ccccc1)[c]1ccccc1)N1CCCCC1 as the compound, how does the survivor count (T/C endpoint: median survival time, dose: 6.25 mg/kg/injection, schedule: Q01DX009 (ip), vehicle: saline with Tween-80, higher T/C = longer survival) read?
Answer: The survivor count was 10 of 10.

Question: CC(=O)OCC1=CC2OC(=O)C3=COC(OC4OC(CO)C(O)C(O)C4O)C1C32 (configuration not stated) was tested. Which T/C (T/C endpoint: mean tumor weight, dose: 220.0 mg/kg/injection, schedule: Q01DX011 (ip), vehicle: carboxymethylcellulose (CMC), evaluated on day 12, higher T/C = larger tumour) did it give?
Answer: Its T/C is 134 % of control [5 of 6 alive].

Question: And the survivor count (T/C endpoint: mean tumor weight, dose: 330.0 mg/kg/injection, schedule: Q01DX011 (ip), vehicle: carboxymethylcellulose (CMC), higher T/C = larger tumour)?
Answer: Its survivor count is 3 of 6.

Question: Which results are given for C[C@]12CCC(=O)C=C1CC[C@@H]1[C@@H]2C(=O)C[C@@]2(C)[C@H]1CC[C@]2(O)C(=O)CO?
Answer: survivor count (T/C endpoint: mean tumor weight, dose: 200.0 mg/kg/injection, schedule: Q01DX011 (ip), vehicle: steroid suspending solution, higher T/C = larger tumour): 3 of 10; survivor count (T/C endpoint: mean tumor weight, dose: 400.0 mg/kg/injection, schedule: Q01DX011 (ip), vehicle: steroid suspending solution, higher T/C = larger tumour): 4 of 10; survivor count (T/C endpoint: median survival time, dose: 80.0 mg/kg/injection, schedule: Q02DX009 (ip), vehicle: Klucel (hydroxypropylcellulose) (HPC), higher T/C = longer survival): 10 of 10; survivor count (T/C endpoint: median survival time, dose: 160.0 mg/kg/injection, schedule: Q02DX009 (ip), vehicle: Klucel (hydroxypropylcellulose) (HPC), higher T/C = longer survival): 9 of 10; survivor count (T/C endpoint: median survival time, dose: 320.0 mg/kg/injection, schedule: Q02DX009 (ip), vehicle: Klucel (hydroxypropylcellulose) (HPC), higher T/C = longer survival): 10 of 10; survivor count (T/C endpoint: median survival time, dose: 640.0 mg/kg/injection, schedule: Q02DX009 (ip), vehicle: Klucel (hydroxypropylcellulose) (HPC), higher T/C = longer survival): 7 of 10

Question: Which results are given for O=C(CP(=O)(O)O)NC(CC(=O)OCc1ccccc1)C(=O)OCc1ccccc1 (configuration not stated)?
Answer: T/C (T/C endpoint: median survival time, dose: 50.0 mg/kg/injection, schedule: Q01DX004 (ip), vehicle: saline, higher T/C = longer survival): 128 % of control; T/C (T/C endpoint: median survival time, dose: 200.0 mg/kg/injection, schedule: Q01DX004 (ip), vehicle: saline, higher T/C = longer survival): 132 and 139 % of control [7 of 8 alive]; T/C [7]: 139 % of control; survivor count [7]: 5 of 8; survivor count (T/C endpoint: median survival time, dose: 800.0 mg/kg/injection, schedule: Q01DX004 (ip), vehicle: saline, higher T/C = longer survival): 3 of 8 and 5 of 8; T/C [8]: 135 % of control; survivor count [8]: 1 of 8 and 7 of 8
